Results reported in publication PMC6791870, “Switch of the interactions between the ribosomal stalk and EF1A in the GTP- and GDP-bound conformations” (Scientific Reports, 2019).
No constants are given. Whether binding was seen depends on the method and setting.

Biological target: T1, 11-mer peptide lacking the C-terminal 3 amino acids of the 14-mer peptide (PhoP1C14∆3), FITC-labelled (P. horikoshii)
T1 sequence (peptide, fluorescein isothiocyanate (FITC) at the N-terminus): SEEEALAGLSA
Experiment: fluorescence polarisation; FITC-labelled peptide (50 nM) with 0-160 µM PhoEF1A•GTP•PfuPelota complex in FP buffer (20 mM HEPES-KOH pH 7.6, 10 mM MgCl2, 150 mM KCl, 0.1 mg/ml BSA), 25 °C; one site specific binding fit; both purified

B1: PhoEF1A•GTP•PfuPelota complex (complex, UniProt O59153 1-428; Q8U150 1-356)
chain 1: MPKEKPHVNIVFIGHVDHGKSTTIGRLLYDTGNIPETIIKKFEEMGEKGKSFKFAWVMDRLKEERERGITIDVAHTKFETPHRYITIIDAPGHRDFVKNMITGASQADAAVLVVAATDGVMPQTKEHAFLARTLGIKHIIVTINKMDMVNYDQKVFEKVKAQVEKLLKTLGYKDFPVIPTSAWNGDNVVKKSDKMPWYNGPTLIEALDQIPEPEKPIDKPLRIPIQDVYSIKGVGTVPVGRVETGKLKVGDVVIFEPASTIFHKPIQGEVKSIEMHHEPLQEALPGDNIGFNVRGVSKNDIKRGDVAGHTDKPPTVVRTKDTFKAQIIVLNHPTAITVGYSPVLHAHTAQIPVRFEQILAKVDPRTGNIVEENPQFIKTGDSAIVVLRPMKPVVLEPVKEIPQLGRFAIRDMGMTIAAGMVISIQKGE
chain 2: MEILEEKPKEGKIKIKAETLDDLWHLYHIISEGDVVYAKTLRKQAQRSDSLRPEKVEAVPVFLGIKAEKINLHRFANQLRITGPIIYASREDVPLGRYHTLTVEPGTVITIQKEKWKNYHIERLKEAIESSKKARVMIVAIEDGEAEIAIVREYGLDFVGSITYNISGKRYNIKRDDEEKKFFHEVAKSMEELMKRENIEKAIVAGPGFYKENFVNFLRENYPELAKKVVTDDTSMGGRTGIYEVIKRGTVDKVYTESRISKEIKLVEKVIEEIAKNGLVAYGLKEVEEATNYGAVETLIVLDSLLKGELREKIEELMELARNLRASVVVVSSEHEGGDKLKALGGIAALLRFKIK
binding: no binding (tested: 160 µM)
